Laboratory results as given in article PMC8384837.
The other results are listed elsewhere or left out. At the low end of the ranking the order means little.

Target: T1, PUM1 PUF domain R1-QFR R2-VFQ R7-NPG S863Q + R864F + Q867R + N899V + Y900F + S1079N + N1080P + E1083G (UniProt Q14671)
T1 sequence: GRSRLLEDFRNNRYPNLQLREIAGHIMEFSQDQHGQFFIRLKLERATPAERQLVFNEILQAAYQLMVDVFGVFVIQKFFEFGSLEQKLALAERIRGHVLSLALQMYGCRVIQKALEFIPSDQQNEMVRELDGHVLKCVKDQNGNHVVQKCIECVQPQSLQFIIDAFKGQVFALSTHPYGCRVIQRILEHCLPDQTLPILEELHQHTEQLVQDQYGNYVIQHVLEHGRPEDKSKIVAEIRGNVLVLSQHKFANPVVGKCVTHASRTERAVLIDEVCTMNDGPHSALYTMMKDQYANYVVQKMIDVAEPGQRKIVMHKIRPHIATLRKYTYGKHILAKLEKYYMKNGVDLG
Conditions: yeast three-hybrid, YBZ-1, SC-Leu-His + 0.5 mM 3-AT, 4 days

**Q.** Which binding signal (log2 enrichment (interaction score)) does the source give for “GGCUAGAACUAGUGGAUCCCCCGGCGCCCGGCGGCUCGAGCCCGGGUAAGUUGACCUAGUCUGCAUGCCGCCGGGCGCCAUGCCUGCAGGUCGACUCUAGAAAACAUG” here?
**A.** -5.56

**Q.** With “GGCUAGAACUAGUGGAUCCCCCGGCGCCCGGCGGCUCGAGCCCGGGUAAGAUUAGCUAGUCUGCAUGCCGCCGGGCGCCAUGCCUGCAGGUCGACUCUAGAAAACAUG” as the sequence, how does the binding signal (log2 enrichment (interaction score)) read?
**A.** < -5.48

**Q.** Which binding signal (log2 enrichment (interaction score)) does the source give for “GGCUAGAACUAGUGGAUCCCCCGGCGCCCGGCGGCUCGAGCCCGGGUAAGGGUAAUAAGUCUGCAUGCCGCCGGGCGCCAUGCCUGCAGGUCGACUCUAGAAAACAUG” here?
**A.** < -6.36

**Q.** Which binding signal (log2 enrichment (interaction score)) does the source give for “GGCUAGAACUAGUGGAUCCCCCGGCGCCCGGCGGCUCGAGCCCGGGUAAGUUAAAGGUGUCUGCAUGCCGCCGGGCGCCAUGCCUGCAGGUCGACUCUAGAAAACAUG” here?
**A.** -6.35

**Q.** How did the binding signal (log2 enrichment (interaction score)) turn out when “GGCUAGAACUAGUGGAUCCCCCGGCGCCCGGCGGCUCGAGCCCGGGUAAGUAUUCGGAGUCUGCAUGCCGCCGGGCGCCAUGCCUGCAGGUCGACUCUAGAAAACAUG” was run?
**A.** < -6.05

**Q.** For “GGCUAGAACUAGUGGAUCCCCCGGCGCCCGGCGGCUCGAGCCCGGGUAAGCGAAGGAUGUCUGCAUGCCGCCGGGCGCCAUGCCUGCAGGUCGACUCUAGAAAACAUG”, which binding signal (log2 enrichment (interaction score)) is on record?
**A.** -5.6

**Q.** Which binding signal (log2 enrichment (interaction score)) does the source give for “GGCUAGAACUAGUGGAUCCCCCGGCGCCCGGCGGCUCGAGCCCGGGUAAGCUUGAGAAGUCUGCAUGCCGCCGGGCGCCAUGCCUGCAGGUCGACUCUAGAAAACAUG” here?
**A.** -5.65

**Q.** Which binding signal (log2 enrichment (interaction score)) does the source give for “GGCUAGAACUAGUGGAUCCCCCGGCGCCCGGCGGCUCGAGCCCGGGUAAGCUGUCCUCGUCUGCAUGCCGCCGGGCGCCAUGCCUGCAGGUCGACUCUAGAAAACAUG” here?
**A.** -3.4

**Q.** How did the binding signal (log2 enrichment (interaction score)) turn out when “GGCUAGAACUAGUGGAUCCCCCGGCGCCCGGCGGCUCGAGCCCGGGUAAGUGCGAAGAGUCUGCAUGCCGCCGGGCGCCAUGCCUGCAGGUCGACUCUAGAAAACAUG” was run?
**A.** -7.05

**Q.** How did the binding signal (log2 enrichment (interaction score)) turn out when “GGCUAGAACUAGUGGAUCCCCCGGCGCCCGGCGGCUCGAGCCCGGGUAAGUUUUAGCCGUCUGCAUGCCGCCGGGCGCCAUGCCUGCAGGUCGACUCUAGAAAACAUG” was run?
**A.** -5.29

**Q.** With “GGCUAGAACUAGUGGAUCCCCCGGCGCCCGGCGGCUCGAGCCCGGGUAAGUUAAGGUGGUCUGCAUGCCGCCGGGCGCCAUGCCUGCAGGUCGACUCUAGAAAACAUG” as the sequence, how does the binding signal (log2 enrichment (interaction score)) read?
**A.** -5.83

**Q.** How did the binding signal (log2 enrichment (interaction score)) turn out when “GGCUAGAACUAGUGGAUCCCCCGGCGCCCGGCGGCUCGAGCCCGGGUAAGUGGUGGACGUCUGCAUGCCGCCGGGCGCCAUGCCUGCAGGUCGACUCUAGAAAACAUG” was run?
**A.** -4.93

**Q.** With “GGCUAGAACUAGUGGAUCCCCCGGCGCCCGGCGGCUCGAGCCCGGGUAAGGAUCUCAAGUCUGCAUGCCGCCGGGCGCCAUGCCUGCAGGUCGACUCUAGAAAACAUG” as the sequence, how does the binding signal (log2 enrichment (interaction score)) read?
**A.** < -5.65

**Q.** With “GGCUAGAACUAGUGGAUCCCCCGGCGCCCGGCGGCUCGAGCCCGGGUAAGUGUCUGAAGUCUGCAUGCCGCCGGGCGCCAUGCCUGCAGGUCGACUCUAGAAAACAUG” as the sequence, how does the binding signal (log2 enrichment (interaction score)) read?
**A.** < -6.4

**Q.** With “GGCUAGAACUAGUGGAUCCCCCGGCGCCCGGCGGCUCGAGCCCGGGUAAGUCUAUAAAGUCUGCAUGCCGCCGGGCGCCAUGCCUGCAGGUCGACUCUAGAAAACAUG” as the sequence, how does the binding signal (log2 enrichment (interaction score)) read?
**A.** < -5.81

**Q.** For “GGCUAGAACUAGUGGAUCCCCCGGCGCCCGGCGGCUCGAGCCCGGGUAAGCUGUAGAUGUCUGCAUGCCGCCGGGCGCCAUGCCUGCAGGUCGACUCUAGAAAACAUG”, which binding signal (log2 enrichment (interaction score)) is on record?
**A.** -5.92

**Q.** For “GGCUAGAACUAGUGGAUCCCCCGGCGCCCGGCGGCUCGAGCCCGGGUAAGUUAAUCUUGUCUGCAUGCCGCCGGGCGCCAUGCCUGCAGGUCGACUCUAGAAAACAUG”, which binding signal (log2 enrichment (interaction score)) is on record?
**A.** -5.21
